# PubChem BioAssay AID743121 – NCATS | 2013
# Assay: 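Genes whose silencing strengthens cell killing by camptothecin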 (primary screen)
# Cell system: MDA-MB-231 cells, a human breast cancer line
# Knock-down reagent: single siRNA against human genes, 20 nM siRNA (0.8 pmol per well)
# Duration: 120 h (drug added 48 h after transfection, read 72 h later)
# Conditions: camptothecin 20 nM (about EC30) for 72 h; vehicle 0.1% DMSO in parallel plates
# Detection: 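CellTiter-Glo ATP signal, scaled to control siRNA as percent viability; sensitisation given as log2 of untreated divided by camptothecin-treated viability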
# Scale: log2 vehicle/camptothecin viability: higher = stronger sensitisation to camptothecin; viability with camptothecin and viability without drug: higher = more viable cells
# Rule for the call: 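Each gene scored by redundant siRNA activity (RSA) over its individual siRNA ratios; a gene is called active at p < 0.001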
# Here is a random part of about 26,000 reagents tested. Over the whole deposit, 167 (0.63%) were called active. 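Calls are per gene from RSA p-values that are not deposited; an individual active-marked siRNA can sensitise only weakly.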 Unmarked entries are inactive. The numbers tell different reagents against one gene apart. No sequences are given here.
gene,siRNA no.,log2 vehicle/camptothecin viability,viability with camptothecin (% of control),viability without drug (% of control)
UCHL3 (ubiquitin C-terminal hydrolase L3),1,0.0786,80.7,85.3
UCHL3 (ubiquitin C-terminal hydrolase L3),2,-0.153,98.4,88.5
UCHL3 (ubiquitin C-terminal hydrolase L3),3,-0.292,56.7,46.3
UCHL3 (ubiquitin C-terminal hydrolase L3),4,-0.104,118,110
"AFDN (afadin, adherens junction formation factor)",1,0.237,30.5,35.9
"AFDN (afadin, adherens junction formation factor)",2,0,94.4,94.4
"AFDN (afadin, adherens junction formation factor)",3,-0.473,96.2,69.3
"AFDN (afadin, adherens junction formation factor)",4,-0.395,45.5,34.6
GPR87 (G protein-coupled receptor 87),1,-0.313,83.9,67.6
GPR87 (G protein-coupled receptor 87),2,-0.25,59.2,49.8
GPR87 (G protein-coupled receptor 87),3,-0.0753,83.6,79.4
DAOA (D-amino acid oxidase activator),1,-0.238,89.2,75.6
DAOA (D-amino acid oxidase activator),2,0.187,70.5,80.3
DAOA (D-amino acid oxidase activator),3,-0.161,23.7,21.2
DAOA (D-amino acid oxidase activator),4,0.279,28.4,34.5
SGCB (sarcoglycan beta),1,-0.0492,72.6,70.2
SGCB (sarcoglycan beta),2,0.0361,48.5,49.7
SGCB (sarcoglycan beta),3,-0.0126,73.1,72.4
PKIG (cAMP-dependent protein kinase inhibitor gamma),1,-0.228,40.8,34.8
PKIG (cAMP-dependent protein kinase inhibitor gamma),2,-0.332,54.9,43.6
PKIG (cAMP-dependent protein kinase inhibitor gamma),3,-0.299,97.5,79.2
PKIG (cAMP-dependent protein kinase inhibitor gamma),4,-0.309,80.2,64.8
DIO2 (iodothyronine deiodinase 2),1,-0.159,97.1,86.9
DIO2 (iodothyronine deiodinase 2),2,-0.611,89,58.3
DIO2 (iodothyronine deiodinase 2),3,-0.184,97.4,85.7

Records listed so far whose target name starts with A or a:
gene,siRNA no.,log2 vehicle/camptothecin viability,viability with camptothecin (% of control),viability without drug (% of control)
"AFDN (afadin, adherens junction formation factor)",1,0.237,30.5,35.9
"AFDN (afadin, adherens junction formation factor)",2,0,94.4,94.4
"AFDN (afadin, adherens junction formation factor)",3,-0.473,96.2,69.3
"AFDN (afadin, adherens junction formation factor)",4,-0.395,45.5,34.6

Continued:
gene,siRNA no.,log2 vehicle/camptothecin viability,viability with camptothecin (% of control),viability without drug (% of control)
CD9 (CD9 molecule),1,-0.337,92.2,73
CD9 (CD9 molecule),2,-0.231,104,88.8
CD9 (CD9 molecule),3,-0.418,72,53.9
CDK13 (cyclin dependent kinase 13),1,0.0505,52.4,54.2
CDK13 (cyclin dependent kinase 13),2,0.184,73.9,83.9
CDK13 (cyclin dependent kinase 13),3,-0.201,90.9,79.1
CDK13 (cyclin dependent kinase 13),4,-0.0999,110,102
RNF32 (ring finger protein 32),1,-0.198,103,89.7
RNF32 (ring finger protein 32),2,-0.188,118,104
RNF32 (ring finger protein 32),3,-0.0675,51.7,49.3
RNF32 (ring finger protein 32),4,-0.254,99.5,83.5
PIDD1 (p53-induced death domain protein 1),1,-0.0314,100,98
PIDD1 (p53-induced death domain protein 1),2,0.0291,31.2,31.8
PIDD1 (p53-induced death domain protein 1),3,0.468,48.6,67.2
PIDD1 (p53-induced death domain protein 1),4,-0.0607,53.2,51
AKR1A1 (aldo-keto reductase family 1 member A1),1,-0.31,94.6,76.3
AKR1A1 (aldo-keto reductase family 1 member A1),2,-0.197,51.8,45.2
AKR1A1 (aldo-keto reductase family 1 member A1),3,-0.674,104,65.2
AKR1A1 (aldo-keto reductase family 1 member A1),4,-0.596,47.9,31.7
"SRC (SRC proto-oncogene, non-receptor tyrosine kinase)",1,-0.152,73.2,65.9
"SRC (SRC proto-oncogene, non-receptor tyrosine kinase)",2,-0.0573,106,102
"SRC (SRC proto-oncogene, non-receptor tyrosine kinase)",3,0.0508,89.6,92.8
"SRC (SRC proto-oncogene, non-receptor tyrosine kinase)",4,0.204,69.1,79.5
